# Laboratory results taken from patent US10526389B2, “Peptides and combinations of peptides for use in immunotherapy against lung cancer, including NSCLC and other cancers” (Immatics Biotechnologies GmbH, priority 2015, dated 2020).
# What was measured:
# NSCLC tumor samples = experiment: Absolute quantitation of peptide copies per cell (nanoLC-MS/MS); parameters: species or system human
# [1] = test system: HLA-A*24-positive lung cancer (NSCLC) samples; experiment: Relative LC-MS quantitation of HLA-A*24 peptide presentation on tumors vs normal tissues; parameters: species or system human; key: very highly over-presented on tumors compared to a panel of normal tissues (+++); highly over-presented on tumors compared to a panel of normal (healthy) tissues (++); over-presented on tumors compared to a panel of normal tissues (+); details: HLA-A*24 peptides; tumors compared to a panel of normal tissues
# [2] = test system: HLA-A*02-positive lung cancer (NSCLC) samples; experiment: Relative LC-MS quantitation of HLA-A*02 peptide presentation on tumors vs normal tissues; parameters: species or system human; key to Peptide Presentation (presentation score): very highly over-presented on tumors compared to a panel of normal tissues (+++); highly over-presented on tumors compared to a panel of normal (healthy) tissues (++); over-presented on tumors compared to a panel of normal tissues (+); details: HLA-A*02 peptides; tumors compared to a panel of normal tissues
# [3] = test system: HLA-A*24-positive lung cancer (NSCLC) samples; experiment: Relative LC-MS quantitation of HLA-A*24 peptide presentation on tumors vs normal tissues; parameters: species or system human; details: HLA-A*24 peptides; over-presented on >5% of measured tumor samples, or presented on >5% with ratio of geometric means tumor vs normal >3
# [4] = test system: source genes of the peptides (mRNA) in tumors vs normal tissues; experiment: Expression profiling of genes encoding the peptides (Affymetrix microarray); parameters: species or system human; key: very highly over-expressed in tumors compared to a panel of normal tissues (+++); highly over-expressed in tumors compared to a panel of normal tissues (++); over-expressed in tumors compared to a panel of normal tissues (+); details: HLA-A*24 peptides; tumors compared to a panel of normal tissues
# [5] = test system: HLA-A*24-positive lung cancer (NSCLC) samples; experiment: Relative LC-MS quantitation of HLA-A*24 peptide presentation on tumors vs normal tissues; parameters: species or system human; key: very highly over-presented on tumors compared to a panel of normal tissues (+++); highly over-presented on tumors compared to a panel of normal tissues (++); over-presented on tumors compared to a panel of normal tissues (+); details: HLA-A*24 peptides; tumors compared to a panel of normal tissues
Substance,Copies per cell (median) (NSCLC tumor samples),Peptide Presentation (presentation score) [1],other results
COL6A3-003 (NLLDLDYEL; listed as Homo sapiens),"+++ (>=1,000 +++)",,
NLIEKSIYL (listed as Homo sapiens) [SEQ ID No. 141],++ (>=100 = ++),,
LYQILQGIVF (listed as Homo sapiens) [SEQ ID No. 161],"+++ (>=1,000 +++)",+++,
MXRA5-001 (TLSSIKVEV; listed as Homo sapiens),++ (>=100 = ++),,
BUB1B-001: peptide found in BUB1B (gene looked up) (KIVDFSYSV),+ (<100 = +),,
VFLNRAKAVFF (listed as Homo sapiens) [SEQ ID No. 38],"+++ (>=1,000 +++)",+++,
KLDETNNTL (listed as Homo sapiens) [SEQ ID No. 158],++ (>=100 = ++),,
COL12A1-002 (FLVDGSWSV; listed as Homo sapiens),++ (>=100 = ++),,
RAD54B-001 (SLYKGLLSV; listed as Homo sapiens),+ (<100 = +),,
TLYPHTSQV (listed as Homo sapiens) [SEQ ID No. 140],+ (<100 = +),,
MUC16-001 (TYSEKTTLF; listed as Homo sapiens),++ (>=100 = ++),+++,
FLFDGSANL (listed as Homo sapiens) [SEQ ID No. 13],"+++ (>=1,000 +++)",,Peptide Presentation (presentation score) [2]: +++
TYNPEIYVI (listed as Homo sapiens) [SEQ ID No. 35],++ (>=100 = ++),+++,
TYKYVDINTF (listed as Homo sapiens) [SEQ ID No. 159],++ (>=100 = ++),+++,
OLFML2B-001 (YYGNTLVEF; listed as Homo sapiens),"+++ (>=1,000 +++)",+++,
WNT5A-001 (AMSSKFFLV; listed as Homo sapiens),++ (>=100 = ++),,
NYPKSIHSF (listed as Homo sapiens) [SEQ ID No. 24],"+++ (>=1,000 +++)",+++,
BNC1-001 (VLFPNLKTV),+ (<100 = +),,

Substance,Copies per cell (median) (NSCLC tumor samples),Peptide Presentation (presentation score) [1],other results
YVYQNNIYL (listed as Homo sapiens) [SEQ ID No. 115],++ (>=100 = ++),,Peptide Presentation (presentation score) [2]: +
ADAM8-001 (KLLTEVHAA; listed as Homo sapiens),+ (<100 = +),,
MXRA5-002 (GLTDNIHLV; listed as Homo sapiens),+ (<100 = +),,
RYLEKFYGL (listed as Homo sapiens) [SEQ ID No. 26],"+++ (>=1,000 +++)",+++,
VYTSWQIPQKF (listed as Homo sapiens) [SEQ ID No. 23],"+++ (>=1,000 +++)",+++,
RLLDSVSRL (listed as Homo sapiens) [SEQ ID No. 121],++ (>=100 = ++),,Peptide Presentation (presentation score) [2]: +
KIQEILTQV (listed as Homo sapiens) [SEQ ID No. 120],++ (>=100 = ++),,Peptide Presentation (presentation score) [2]: +++
TTC13-001 (RYLEYFEKI; listed as Homo sapiens),"+++ (>=1,000 +++)",+++,
KYLEKYYNL (listed as Homo sapiens) [SEQ ID No. 30],"+++ (>=1,000 +++)",+++,
COL6A3-013 (EYQPEMLEKF; listed as Homo sapiens),++ (>=100 = ++),+++,
COL6A3-012 (RYPPPVREF; listed as Homo sapiens),"+++ (>=1,000 +++)",+++,
DONSON-001 (VLYPHEPTAV; listed as Homo sapiens),+ (<100 = +),,
38: peptide found in GPNMB (gene looked up) (VFLNRAKAVFF; listed as Homo sapiens) [compound 38],,,Other relevant organs/diseases (additional tumor types on which the peptide was found) [3]: Liver; Gene Expression (expression score of source gene) [4]: +
YYTKGFALLNF (listed as Homo sapiens) [SEQ ID No. 29],++ (>=100 = ++),+++,
FKBP10-002 (TYIGQGYII; listed as Homo sapiens),++ (>=100 = ++),+++,
COL6A3-001 (SYLQAANAL; listed as Homo sapiens),"++++ (>=10,000 = ++++)",+++,
RFMDGHITF (listed as Homo sapiens) [SEQ ID No. 25],"++++ (>=10,000 = ++++)",+++,
KDM6B-001 (RYGGSFAEL; listed as Homo sapiens),,,Peptide Presentation (presentation score) [5]: ++

# For some of these results: Expression grades refer to the transcript from which the peptide derives; gene names, where given, were looked up from the sequence.
